Measurements reported in doi:10.1101/2025.04.08.647777 (bioRxiv, 2025).
Where a chain is given by its changes, count along the chain named. Read-outs that look alike come from different tables or passages of the source. These are yes or no findings as the source states them, for the method shown. For some of these results: In cells and extracts the contact can be indirect. Some entries that bind do so weakly or less than the wild type. For some of these results: Tags and fused reporters may be left off the sequences shown.

Protein sequences, listed by entry. Tags and fused reporters are not part of them. Lines headed by an entry give the natural chain unless they say otherwise; changes in a name come on top.
UniProt O14576, whole entry: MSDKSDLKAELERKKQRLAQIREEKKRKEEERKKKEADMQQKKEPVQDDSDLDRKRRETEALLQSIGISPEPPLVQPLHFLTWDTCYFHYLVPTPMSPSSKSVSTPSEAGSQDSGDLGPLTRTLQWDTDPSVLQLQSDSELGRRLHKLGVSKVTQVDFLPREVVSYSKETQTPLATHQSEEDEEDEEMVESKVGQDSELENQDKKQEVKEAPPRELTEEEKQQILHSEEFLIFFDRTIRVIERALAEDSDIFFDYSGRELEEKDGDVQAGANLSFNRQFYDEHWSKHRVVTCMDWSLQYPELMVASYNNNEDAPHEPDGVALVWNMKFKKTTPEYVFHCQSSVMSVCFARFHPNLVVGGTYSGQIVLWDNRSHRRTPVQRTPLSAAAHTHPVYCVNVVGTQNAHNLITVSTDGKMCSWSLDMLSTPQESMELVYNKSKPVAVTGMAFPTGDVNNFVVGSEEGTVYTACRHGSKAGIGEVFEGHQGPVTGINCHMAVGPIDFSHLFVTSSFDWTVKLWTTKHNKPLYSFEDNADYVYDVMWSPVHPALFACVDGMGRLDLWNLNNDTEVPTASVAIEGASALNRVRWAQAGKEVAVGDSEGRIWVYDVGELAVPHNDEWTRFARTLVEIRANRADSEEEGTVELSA
UniProt Q7L5N1, whole entry: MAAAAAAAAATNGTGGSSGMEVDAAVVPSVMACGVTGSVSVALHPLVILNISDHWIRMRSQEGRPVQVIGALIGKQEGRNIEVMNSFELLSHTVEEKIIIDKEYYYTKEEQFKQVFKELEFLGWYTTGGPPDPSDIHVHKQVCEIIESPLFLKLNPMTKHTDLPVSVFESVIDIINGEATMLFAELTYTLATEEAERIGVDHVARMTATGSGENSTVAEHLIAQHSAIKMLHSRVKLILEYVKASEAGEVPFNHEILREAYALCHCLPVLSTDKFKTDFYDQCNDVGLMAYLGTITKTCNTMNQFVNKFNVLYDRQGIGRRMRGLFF
UniProt Q92905, whole entry: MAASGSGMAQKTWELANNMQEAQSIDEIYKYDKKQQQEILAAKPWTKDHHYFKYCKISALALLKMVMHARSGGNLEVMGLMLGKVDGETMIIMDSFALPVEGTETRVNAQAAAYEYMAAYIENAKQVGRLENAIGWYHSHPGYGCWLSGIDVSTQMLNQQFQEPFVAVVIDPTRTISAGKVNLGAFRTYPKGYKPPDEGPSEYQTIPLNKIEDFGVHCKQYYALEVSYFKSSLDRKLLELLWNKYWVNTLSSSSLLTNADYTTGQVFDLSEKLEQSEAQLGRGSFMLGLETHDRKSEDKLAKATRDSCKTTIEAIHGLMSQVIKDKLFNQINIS
UniProt Q13098, whole entry: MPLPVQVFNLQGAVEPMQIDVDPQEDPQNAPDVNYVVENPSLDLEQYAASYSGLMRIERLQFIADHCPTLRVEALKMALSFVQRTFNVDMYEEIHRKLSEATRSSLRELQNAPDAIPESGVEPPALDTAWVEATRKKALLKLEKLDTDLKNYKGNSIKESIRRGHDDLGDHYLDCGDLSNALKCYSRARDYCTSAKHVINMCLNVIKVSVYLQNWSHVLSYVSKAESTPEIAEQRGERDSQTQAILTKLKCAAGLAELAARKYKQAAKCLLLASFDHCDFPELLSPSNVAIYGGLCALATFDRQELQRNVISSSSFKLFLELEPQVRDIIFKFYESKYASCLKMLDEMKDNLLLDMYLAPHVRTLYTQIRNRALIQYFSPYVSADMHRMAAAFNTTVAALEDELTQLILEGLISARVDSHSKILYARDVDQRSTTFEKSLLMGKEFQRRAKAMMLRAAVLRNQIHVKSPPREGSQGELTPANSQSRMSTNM
UniProt O43237, whole entry: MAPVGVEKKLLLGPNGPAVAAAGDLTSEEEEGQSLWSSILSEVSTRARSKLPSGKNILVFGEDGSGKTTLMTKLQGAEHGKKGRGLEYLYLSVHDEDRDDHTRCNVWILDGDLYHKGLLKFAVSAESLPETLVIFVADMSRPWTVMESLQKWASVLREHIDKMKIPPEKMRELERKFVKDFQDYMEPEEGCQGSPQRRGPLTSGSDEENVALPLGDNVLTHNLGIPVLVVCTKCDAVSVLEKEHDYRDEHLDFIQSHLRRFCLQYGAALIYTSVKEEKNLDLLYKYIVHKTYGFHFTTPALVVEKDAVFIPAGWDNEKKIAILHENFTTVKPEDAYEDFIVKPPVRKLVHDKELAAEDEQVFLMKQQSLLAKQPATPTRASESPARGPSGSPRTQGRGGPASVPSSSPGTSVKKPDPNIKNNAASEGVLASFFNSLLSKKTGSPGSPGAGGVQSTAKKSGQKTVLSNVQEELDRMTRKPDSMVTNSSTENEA
UniProt Q9UNS2, whole entry: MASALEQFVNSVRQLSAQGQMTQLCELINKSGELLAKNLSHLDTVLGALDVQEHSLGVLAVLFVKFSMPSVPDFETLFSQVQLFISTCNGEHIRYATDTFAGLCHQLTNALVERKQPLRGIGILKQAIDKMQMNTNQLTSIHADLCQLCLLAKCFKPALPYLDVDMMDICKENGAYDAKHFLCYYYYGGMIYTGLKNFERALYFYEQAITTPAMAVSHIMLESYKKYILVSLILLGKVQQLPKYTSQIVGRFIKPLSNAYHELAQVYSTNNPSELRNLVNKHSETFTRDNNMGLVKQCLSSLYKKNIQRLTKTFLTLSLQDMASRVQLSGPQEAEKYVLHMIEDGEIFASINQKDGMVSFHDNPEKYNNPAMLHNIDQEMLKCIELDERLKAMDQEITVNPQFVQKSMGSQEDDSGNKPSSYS
UniProt P61201, whole entry: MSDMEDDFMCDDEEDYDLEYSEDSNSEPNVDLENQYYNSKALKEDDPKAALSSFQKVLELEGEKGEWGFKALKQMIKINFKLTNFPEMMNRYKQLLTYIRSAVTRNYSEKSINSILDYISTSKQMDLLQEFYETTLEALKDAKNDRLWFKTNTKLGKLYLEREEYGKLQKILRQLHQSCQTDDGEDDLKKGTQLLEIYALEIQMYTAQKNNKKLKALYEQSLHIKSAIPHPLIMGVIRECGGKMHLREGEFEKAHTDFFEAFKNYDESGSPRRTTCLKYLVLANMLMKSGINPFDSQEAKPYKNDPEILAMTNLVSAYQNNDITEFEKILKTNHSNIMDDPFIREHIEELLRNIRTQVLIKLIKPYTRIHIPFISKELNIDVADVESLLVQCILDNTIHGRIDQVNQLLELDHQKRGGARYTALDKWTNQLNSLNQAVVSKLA
UniProt Q99627, whole entry: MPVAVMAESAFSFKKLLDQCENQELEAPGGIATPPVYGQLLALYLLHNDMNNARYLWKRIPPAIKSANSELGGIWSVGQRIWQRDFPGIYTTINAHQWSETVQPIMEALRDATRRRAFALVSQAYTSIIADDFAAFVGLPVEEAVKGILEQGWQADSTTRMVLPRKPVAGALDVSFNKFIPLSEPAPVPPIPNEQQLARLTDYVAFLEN
UniProt O14744, whole entry: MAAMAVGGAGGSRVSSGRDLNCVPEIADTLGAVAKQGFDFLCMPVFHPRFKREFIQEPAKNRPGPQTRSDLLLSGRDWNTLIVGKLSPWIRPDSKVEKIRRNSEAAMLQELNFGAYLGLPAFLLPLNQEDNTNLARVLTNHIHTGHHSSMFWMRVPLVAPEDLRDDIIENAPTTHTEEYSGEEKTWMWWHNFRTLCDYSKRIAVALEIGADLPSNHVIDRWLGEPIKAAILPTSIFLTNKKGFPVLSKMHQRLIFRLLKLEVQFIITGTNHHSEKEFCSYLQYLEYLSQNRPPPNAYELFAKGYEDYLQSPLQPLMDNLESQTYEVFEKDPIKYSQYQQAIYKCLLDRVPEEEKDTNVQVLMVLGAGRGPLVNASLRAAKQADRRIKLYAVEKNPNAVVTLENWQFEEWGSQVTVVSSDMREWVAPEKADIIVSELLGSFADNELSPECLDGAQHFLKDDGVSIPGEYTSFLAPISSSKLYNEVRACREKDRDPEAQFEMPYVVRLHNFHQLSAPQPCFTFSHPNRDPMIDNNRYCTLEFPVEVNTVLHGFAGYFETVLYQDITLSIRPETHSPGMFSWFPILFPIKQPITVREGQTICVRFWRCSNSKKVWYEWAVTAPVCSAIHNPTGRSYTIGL
UniProt Q8TD16, whole entry: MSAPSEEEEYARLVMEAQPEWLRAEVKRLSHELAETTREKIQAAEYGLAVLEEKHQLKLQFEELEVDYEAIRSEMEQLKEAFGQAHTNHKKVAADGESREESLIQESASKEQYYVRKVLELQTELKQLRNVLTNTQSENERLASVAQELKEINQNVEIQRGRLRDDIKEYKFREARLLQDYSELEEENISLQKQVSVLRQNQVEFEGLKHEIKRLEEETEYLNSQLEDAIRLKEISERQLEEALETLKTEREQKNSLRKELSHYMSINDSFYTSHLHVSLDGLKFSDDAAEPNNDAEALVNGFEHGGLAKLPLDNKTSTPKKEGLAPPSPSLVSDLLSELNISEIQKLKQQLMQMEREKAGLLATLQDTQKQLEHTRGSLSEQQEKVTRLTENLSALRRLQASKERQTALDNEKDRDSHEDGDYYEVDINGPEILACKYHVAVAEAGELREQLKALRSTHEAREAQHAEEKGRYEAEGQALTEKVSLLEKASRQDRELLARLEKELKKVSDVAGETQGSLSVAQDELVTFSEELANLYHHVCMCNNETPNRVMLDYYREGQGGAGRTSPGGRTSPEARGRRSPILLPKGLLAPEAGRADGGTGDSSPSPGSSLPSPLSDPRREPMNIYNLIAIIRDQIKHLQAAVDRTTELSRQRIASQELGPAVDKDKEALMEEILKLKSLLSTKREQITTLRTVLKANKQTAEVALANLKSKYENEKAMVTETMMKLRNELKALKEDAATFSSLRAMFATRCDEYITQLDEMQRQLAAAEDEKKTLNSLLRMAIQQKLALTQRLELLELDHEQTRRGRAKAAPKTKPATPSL

Tests used:
SFB-DIC1 WT = SFB-DIC1 WT (UniProt O14576); experiment: pull-down
GST-CSN6 = GST-CSN6 (UniProt Q7L5N1); experiment: pull-down
GST-CSN5 = GST-CSN5 (UniProt Q92905); experiment: pull-down
SFB-Lis1 WT = target: T1, SFB-Lis1 WT (UniProt P43034); experiment: pull-down
T1 sequence: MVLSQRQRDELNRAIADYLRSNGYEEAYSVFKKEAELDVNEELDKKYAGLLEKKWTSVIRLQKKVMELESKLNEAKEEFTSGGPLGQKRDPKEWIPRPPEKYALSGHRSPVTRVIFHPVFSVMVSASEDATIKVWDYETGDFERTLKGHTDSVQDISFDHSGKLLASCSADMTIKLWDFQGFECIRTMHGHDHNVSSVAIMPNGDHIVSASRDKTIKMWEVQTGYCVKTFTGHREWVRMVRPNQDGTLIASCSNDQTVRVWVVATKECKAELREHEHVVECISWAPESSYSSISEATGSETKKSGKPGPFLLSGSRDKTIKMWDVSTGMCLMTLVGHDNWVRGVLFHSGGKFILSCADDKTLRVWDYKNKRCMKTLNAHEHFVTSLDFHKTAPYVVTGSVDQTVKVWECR

SFB-CSN1 = SFB-CSN1 (UniProt Q13098); experiment: pull-down
SFB-Lis1 D317H = target: T2, SFB-Lis1 D317H (UniProt P43034); experiment: pull-down
T2 sequence: T1 sequence with D317H

SFB-Lis1 S169P = target: T3, SFB-Lis1 S169P (UniProt P43034); experiment: pull-down
T3 sequence: T1 sequence with S169P

[1] = target: dynein heavy chain (DHC), endogenous (human (endogenous in HEK293T)) (UniProt Q14204); experiment: co-IP
SFB-LIC2 = SFB-LIC2 (UniProt O43237); experiment: pull-down
[2] = target: CSN1, bacterially purified recombinant (GST-CSN subunit) (UniProt Q13098); experiment: pull-down
GST-CSN3 = GST-CSN3 (UniProt Q9UNS2); experiment: pull-down
GST-CSN2 = GST-CSN2 (UniProt P61201); experiment: pull-down
GST-CSN4 = GST-CSN4 (UniProt Q9BT78); experiment: pull-down
GST-CSN7A = target: T4, GST-CSN7A (UniProt Q9UBW8); experiment: pull-down
T4 sequence: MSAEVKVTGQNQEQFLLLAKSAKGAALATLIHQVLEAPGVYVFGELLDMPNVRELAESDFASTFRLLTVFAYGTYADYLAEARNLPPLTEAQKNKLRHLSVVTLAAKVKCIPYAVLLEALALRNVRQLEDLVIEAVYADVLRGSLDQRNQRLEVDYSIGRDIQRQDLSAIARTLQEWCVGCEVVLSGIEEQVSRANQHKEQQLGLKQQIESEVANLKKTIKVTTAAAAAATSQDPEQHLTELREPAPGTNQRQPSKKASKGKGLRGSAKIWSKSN

GST-CSN8 = GST-CSN8 (UniProt Q99627); experiment: pull-down
[3] = target: PRMT5 (endogenous) (human (endogenous in HEK293T and IMR32)) (UniProt O14744); experiment: co-IP
[4] = target: PRMT5 (endogenous) (human (endogenous in HEK293T and IMR32)) (UniProt O14744); experiment: co-IP; remark: listed apart in the source

Q: For Myc-CSN1 (from UniProt Q13098 1-491), which binding (SFB-DIC1 WT) is on record?
A: binds

Q: For “LIC2 (endogenous) (from UniProt O43237 1-492)”, which binding (SFB-DIC1 WT) is on record?
A: binds

Q: Which binding (SFB-DIC1 WT) does the source give for V5-BicD2 (from UniProt Q8TD16 1-824) here?
A: binds

Q: MBP-DIC1 (from UniProt O14576 1-645) was tested. Which binding (GST-CSN6) did it give?
A: no binding

Q: And the binding (GST-CSN5)?
A: no binding

Q: Which results are given for DIC1-HA (from UniProt O14576 1-645)?
A: binding (SFB-Lis1 WT): binds; binding (SFB-CSN1): binds; binding (SFB-Lis1 D317H): binds; binding (SFB-Lis1 S169P): binds

Q: What does the source list for “CSN1 (endogenous) (from UniProt Q13098 1-491)”?
A: binding (SFB-DIC1 WT): binds; binding [1]: binds

Q: For “BicD2 (endogenous) (from UniProt Q8TD16 1-824)”, which binding (SFB-DIC1 WT) is on record?
A: binds

Q: Myc-CSN4 (from UniProt Q9BT78 1-406) was tested. Which binding (SFB-Lis1 WT) did it give?
A: binds

Q: What does the source list for “PRMT5 (endogenous) (from UniProt O14744 1-637) (enzyme)”?
A: binding (SFB-Lis1 WT): binds; binding (SFB-Lis1 S169P): binds

Q: For Myc-DIC1 (from UniProt O14576 1-645), which binding (SFB-LIC2) is on record?
A: binds

Q: Which binding (SFB-DIC1 WT) does the source give for Myc-LIC2 (from UniProt O43237 1-492) here?
A: binds

B1: Lis1, bacterially purified recombinant (protein, UniProt P43034 1-410)
chain: T1 sequence
Q: How did the binding [2] turn out when B1 was run?
A: binds

Q: And the binding (GST-CSN3)?
A: binds

Q: What about the binding (GST-CSN2) of the same molecule?
A: binds

Q: What about the binding (GST-CSN4) of the same molecule?
A: binds

Q: And the binding (GST-CSN7A)?
A: binds

Q: And the binding (GST-CSN8)?
A: binds

B2: Lis1 (endogenous) (protein, UniProt P43034 1-410)
chain: T1 sequence
Q: What does the source list for B2?
A: binding [3]: binds; binding [4]: binds
